This test deals with integrin β1 of PC12 cells (rat (PC12 cells)) (UniProt P49134). Nature of the test: anti-His6 immunoprecipitation from PC12 cells on rLG3-coated dishes, Western blot (associated complex). (A western blot detects proteins with antibodies after separation by electrophoresis.)

Chains of the proteins cited; added tags and fusions are not shown. Residues count along the entry.
UniProt P49134, residues 21-799: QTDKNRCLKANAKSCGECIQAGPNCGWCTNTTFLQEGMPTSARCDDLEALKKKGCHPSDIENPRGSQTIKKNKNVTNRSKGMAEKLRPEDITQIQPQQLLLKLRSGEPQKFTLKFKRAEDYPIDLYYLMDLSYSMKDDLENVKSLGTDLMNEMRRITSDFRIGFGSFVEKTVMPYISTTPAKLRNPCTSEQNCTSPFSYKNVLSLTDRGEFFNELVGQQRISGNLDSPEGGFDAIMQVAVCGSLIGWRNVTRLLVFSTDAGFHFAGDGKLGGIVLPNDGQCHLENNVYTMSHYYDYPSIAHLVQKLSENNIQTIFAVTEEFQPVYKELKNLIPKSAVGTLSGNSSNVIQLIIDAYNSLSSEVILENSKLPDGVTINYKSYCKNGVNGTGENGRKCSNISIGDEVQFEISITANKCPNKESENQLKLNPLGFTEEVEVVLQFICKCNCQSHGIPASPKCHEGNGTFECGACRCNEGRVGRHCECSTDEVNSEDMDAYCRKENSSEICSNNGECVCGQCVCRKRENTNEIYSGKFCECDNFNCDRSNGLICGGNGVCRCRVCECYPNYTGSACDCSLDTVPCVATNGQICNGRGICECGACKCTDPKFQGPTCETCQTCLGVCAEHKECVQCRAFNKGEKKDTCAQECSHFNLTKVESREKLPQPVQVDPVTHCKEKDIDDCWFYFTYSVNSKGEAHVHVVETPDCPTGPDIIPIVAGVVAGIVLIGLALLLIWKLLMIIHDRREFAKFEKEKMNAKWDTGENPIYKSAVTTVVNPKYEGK

No constants are given. Whether binding was seen depends on the method and setting. Some binding calls cover weakened binding; strength is not graded here. Where a sequence is shown, tags or fusion partners need not be part of it.

B1: recombinant human laminin α2 chain LG3 domain protein (His6-tagged rLG3) (ligand, not shown: small tags and cut ends)
chain: VELSPVPIDVGTEINLSFSTKNESGIILLGSGGTPAPPRRKRRQTGQAYYVILLNRGRLEVHLSTGARTMRKIVIRPEPNLFHDGREHSVHVERTRGIFTVQVDENRRYMQNLTVEQPIEVKKLFVGGAPPEFQPSPLRNIPPFEGCIWNLVINSVPMDFARPVSFKNADIGRCAHQKLREDEDGAAPAEIVIQPEPVPTPAFPTPTPV
For the molecule B1, the binding result is listed as “binds”.

These data come from patent publication US20120238503A1.
